From article doi:10.1101/2023.12.07.570680 come the findings set out here.

What all share (assay): two-hybrid
The target in test [1] is T1, MatK (yeast two-hybrid fusion) (UniProt P56784).
T1 sequence: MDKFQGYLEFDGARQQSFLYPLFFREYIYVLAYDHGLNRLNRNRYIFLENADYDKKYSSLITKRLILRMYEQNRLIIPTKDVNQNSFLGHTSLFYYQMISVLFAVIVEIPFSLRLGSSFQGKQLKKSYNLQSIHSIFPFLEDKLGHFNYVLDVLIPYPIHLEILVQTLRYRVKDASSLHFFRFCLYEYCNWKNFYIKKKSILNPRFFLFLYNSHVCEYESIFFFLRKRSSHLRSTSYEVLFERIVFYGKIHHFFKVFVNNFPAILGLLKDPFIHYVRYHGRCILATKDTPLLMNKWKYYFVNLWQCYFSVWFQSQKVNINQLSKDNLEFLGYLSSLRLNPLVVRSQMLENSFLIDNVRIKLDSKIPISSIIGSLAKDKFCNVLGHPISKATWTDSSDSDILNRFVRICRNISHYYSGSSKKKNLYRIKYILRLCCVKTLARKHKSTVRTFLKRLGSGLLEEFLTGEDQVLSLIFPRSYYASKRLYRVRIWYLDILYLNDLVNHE

In test [2] the target is T2, EMB976 (yeast two-hybrid fusion, transit peptide removed) (Arabidopsis thaliana) (UniProt O04647).
T2 sequence: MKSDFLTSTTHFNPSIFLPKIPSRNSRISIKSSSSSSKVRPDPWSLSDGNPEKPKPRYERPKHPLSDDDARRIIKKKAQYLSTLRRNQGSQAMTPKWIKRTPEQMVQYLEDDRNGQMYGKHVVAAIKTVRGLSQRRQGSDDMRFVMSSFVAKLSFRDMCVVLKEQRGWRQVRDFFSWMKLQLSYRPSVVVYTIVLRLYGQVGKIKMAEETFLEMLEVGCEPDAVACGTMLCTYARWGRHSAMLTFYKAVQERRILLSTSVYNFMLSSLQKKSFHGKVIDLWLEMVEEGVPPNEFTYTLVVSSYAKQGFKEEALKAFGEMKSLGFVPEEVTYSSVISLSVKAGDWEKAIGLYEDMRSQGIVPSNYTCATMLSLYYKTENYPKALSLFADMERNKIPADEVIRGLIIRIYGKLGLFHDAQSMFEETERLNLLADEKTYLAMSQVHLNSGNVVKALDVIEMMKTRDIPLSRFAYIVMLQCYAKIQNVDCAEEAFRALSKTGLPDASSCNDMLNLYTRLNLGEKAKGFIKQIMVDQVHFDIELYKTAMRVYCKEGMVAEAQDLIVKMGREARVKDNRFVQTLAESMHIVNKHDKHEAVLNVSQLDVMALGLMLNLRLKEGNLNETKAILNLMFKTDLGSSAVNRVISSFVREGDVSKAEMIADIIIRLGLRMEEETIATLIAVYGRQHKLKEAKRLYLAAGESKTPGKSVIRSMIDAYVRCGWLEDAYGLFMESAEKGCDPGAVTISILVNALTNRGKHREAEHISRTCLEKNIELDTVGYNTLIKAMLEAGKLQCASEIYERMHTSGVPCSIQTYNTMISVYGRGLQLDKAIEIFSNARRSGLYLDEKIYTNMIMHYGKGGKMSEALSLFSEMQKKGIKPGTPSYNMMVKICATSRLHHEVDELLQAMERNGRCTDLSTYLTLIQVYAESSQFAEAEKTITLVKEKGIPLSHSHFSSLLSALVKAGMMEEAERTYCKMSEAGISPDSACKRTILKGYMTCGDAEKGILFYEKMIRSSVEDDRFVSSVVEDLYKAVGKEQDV

For test [3], the target named is T3, CFM2 (yeast two-hybrid fusion, transit peptide removed) (Arabidopsis thaliana) (UniProt Q8L7C2).
T3 sequence: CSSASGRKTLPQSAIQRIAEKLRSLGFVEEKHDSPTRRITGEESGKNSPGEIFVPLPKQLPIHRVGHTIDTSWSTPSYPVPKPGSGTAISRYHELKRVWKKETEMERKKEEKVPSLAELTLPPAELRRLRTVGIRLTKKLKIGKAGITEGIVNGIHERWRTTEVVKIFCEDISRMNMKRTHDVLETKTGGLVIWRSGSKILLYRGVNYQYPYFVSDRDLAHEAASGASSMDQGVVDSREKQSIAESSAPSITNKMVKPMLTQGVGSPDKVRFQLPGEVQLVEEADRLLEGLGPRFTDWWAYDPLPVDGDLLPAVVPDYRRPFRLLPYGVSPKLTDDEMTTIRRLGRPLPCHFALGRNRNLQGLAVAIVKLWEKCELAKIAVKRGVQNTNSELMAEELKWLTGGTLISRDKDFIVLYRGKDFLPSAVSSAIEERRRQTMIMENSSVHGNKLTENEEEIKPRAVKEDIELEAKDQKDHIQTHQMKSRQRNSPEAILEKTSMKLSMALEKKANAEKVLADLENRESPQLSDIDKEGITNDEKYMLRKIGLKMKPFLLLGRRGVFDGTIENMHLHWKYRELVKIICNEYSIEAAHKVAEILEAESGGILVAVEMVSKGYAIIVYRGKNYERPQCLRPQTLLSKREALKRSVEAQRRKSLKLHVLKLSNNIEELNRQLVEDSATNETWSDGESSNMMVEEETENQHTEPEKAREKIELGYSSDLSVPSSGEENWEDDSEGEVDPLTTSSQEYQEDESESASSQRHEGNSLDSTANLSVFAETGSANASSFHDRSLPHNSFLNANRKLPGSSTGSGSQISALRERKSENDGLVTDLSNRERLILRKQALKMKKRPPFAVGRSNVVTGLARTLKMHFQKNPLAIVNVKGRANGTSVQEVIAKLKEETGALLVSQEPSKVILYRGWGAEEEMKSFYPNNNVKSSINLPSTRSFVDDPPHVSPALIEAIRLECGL

Results are given in words; binding and its absence hold for the method and conditions named. Some binding calls cover weakened binding; strength is not graded here. Where a sequence is shown, tags or fusion partners need not be part of it.

B1: EMB1006 (yeast two-hybrid fusion, transit peptide removed) (protein, UniProt Q9FGR7 45-723)
chain: ATSPSSSSSSPSIFLSCFDDALPDKIQQPENSTINSEESECEEEDDEEGDDFTDPILKFFKSRTLTSESTADPARESKFSLQKNRRTSWHLAPDFADPETEIESKPEESVFVTNQQTLGVHIPFESGVAREILELAKNLKENQTLGEMLSGFERRVSDTECVEALVMMGESGFVKSCLYFYEWMSLQEPSLASPRACSVLFTLLGRERMADYILLLLSNLPDKEEFRDVRLYNAAISGLSASQRYDDAWEVYEAMDKINVYPDNVTCAILITTLRKAGRSAKEVWEIFEKMSEKGVKWSQDVFGGLVKSFCDEGLKEEALVIQTEMEKKGIRSNTIVYNTLMDAYNKSNHIEEVEGLFTEMRDKGLKPSAATYNILMDAYARRMQPDIVETLLREMEDLGLEPNVKSYTCLISAYGRTKKMSDMAADAFLRMKKVGLKPSSHSYTALIHAYSVSGWHEKAYASFEEMCKEGIKPSVETYTSVLDAFRRSGDTGKLMEIWKLMLREKIKGTRITYNTLLDGFAKQGLYIEARDVVSEFSKMGLQPSVMTYNMLMNAYARGGQDAKLPQLLKEMAALNLKPDSITYSTMIYAFVRVRDFKRAFFYHKMMVKSGQVPDPRSYEKLRAILEDKAKTKNRKDKTAILGIINSKFGRVKAKTKGKKDEFWKYKTNRTTSPGRHRS
Take B1: the binding result in test [1] is “no binding”; in test [2] it was “no binding”; in test [3], “binds”.
